Source: the supplement of paper PMC10849652
The list shows a part of the results.

Chains of the proteins cited; added tags and fusions are not shown. Lines headed by an entry give the natural chain unless they say otherwise; changes in a name come on top.
UniProt P15260: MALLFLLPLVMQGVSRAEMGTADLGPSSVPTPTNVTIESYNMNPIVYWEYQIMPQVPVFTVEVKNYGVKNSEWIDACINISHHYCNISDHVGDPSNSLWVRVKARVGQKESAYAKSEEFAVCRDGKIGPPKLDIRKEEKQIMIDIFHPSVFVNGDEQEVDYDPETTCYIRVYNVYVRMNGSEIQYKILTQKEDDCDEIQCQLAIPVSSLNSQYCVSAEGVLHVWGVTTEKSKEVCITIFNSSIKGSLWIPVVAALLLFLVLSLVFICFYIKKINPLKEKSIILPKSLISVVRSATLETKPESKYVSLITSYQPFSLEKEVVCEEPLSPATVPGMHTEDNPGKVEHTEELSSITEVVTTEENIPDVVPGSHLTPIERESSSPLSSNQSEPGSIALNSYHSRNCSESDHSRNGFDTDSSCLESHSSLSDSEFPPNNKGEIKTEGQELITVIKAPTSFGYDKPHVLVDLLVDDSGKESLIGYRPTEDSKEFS
UniProt O14920: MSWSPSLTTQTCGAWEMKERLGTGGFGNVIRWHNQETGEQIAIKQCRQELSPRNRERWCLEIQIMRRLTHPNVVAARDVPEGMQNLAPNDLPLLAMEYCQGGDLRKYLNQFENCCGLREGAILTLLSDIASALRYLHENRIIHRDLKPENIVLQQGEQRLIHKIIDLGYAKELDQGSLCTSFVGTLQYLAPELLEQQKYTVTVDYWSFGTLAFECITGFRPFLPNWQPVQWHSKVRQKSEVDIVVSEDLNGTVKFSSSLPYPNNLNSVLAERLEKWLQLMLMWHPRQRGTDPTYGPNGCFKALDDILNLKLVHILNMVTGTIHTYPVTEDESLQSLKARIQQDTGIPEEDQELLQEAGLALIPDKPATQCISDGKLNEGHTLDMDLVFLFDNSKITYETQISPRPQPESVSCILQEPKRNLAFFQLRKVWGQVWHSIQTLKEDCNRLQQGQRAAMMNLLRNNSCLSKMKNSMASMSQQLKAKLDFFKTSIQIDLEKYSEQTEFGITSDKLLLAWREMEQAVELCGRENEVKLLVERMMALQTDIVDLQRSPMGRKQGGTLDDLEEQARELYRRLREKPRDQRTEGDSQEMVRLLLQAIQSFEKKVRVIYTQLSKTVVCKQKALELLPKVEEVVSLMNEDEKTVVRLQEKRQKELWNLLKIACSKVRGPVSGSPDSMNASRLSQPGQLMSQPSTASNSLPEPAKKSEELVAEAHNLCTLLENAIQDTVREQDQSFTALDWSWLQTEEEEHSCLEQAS
UniProt P78318: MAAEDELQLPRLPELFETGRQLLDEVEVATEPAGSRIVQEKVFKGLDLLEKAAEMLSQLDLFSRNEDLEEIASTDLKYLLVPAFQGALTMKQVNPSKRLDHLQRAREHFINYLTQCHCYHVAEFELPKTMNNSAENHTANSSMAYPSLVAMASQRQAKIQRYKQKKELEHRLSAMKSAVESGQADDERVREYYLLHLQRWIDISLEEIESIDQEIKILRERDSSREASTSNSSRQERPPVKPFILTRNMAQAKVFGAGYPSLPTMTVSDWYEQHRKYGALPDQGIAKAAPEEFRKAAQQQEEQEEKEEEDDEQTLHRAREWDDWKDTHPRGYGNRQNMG
UniProt Q96T52: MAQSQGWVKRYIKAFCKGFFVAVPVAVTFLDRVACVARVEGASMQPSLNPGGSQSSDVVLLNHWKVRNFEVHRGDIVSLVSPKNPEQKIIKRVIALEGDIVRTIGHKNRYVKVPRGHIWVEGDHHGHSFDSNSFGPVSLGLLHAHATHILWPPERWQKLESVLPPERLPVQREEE
UniProt Q5TA45, whole entry, looked up: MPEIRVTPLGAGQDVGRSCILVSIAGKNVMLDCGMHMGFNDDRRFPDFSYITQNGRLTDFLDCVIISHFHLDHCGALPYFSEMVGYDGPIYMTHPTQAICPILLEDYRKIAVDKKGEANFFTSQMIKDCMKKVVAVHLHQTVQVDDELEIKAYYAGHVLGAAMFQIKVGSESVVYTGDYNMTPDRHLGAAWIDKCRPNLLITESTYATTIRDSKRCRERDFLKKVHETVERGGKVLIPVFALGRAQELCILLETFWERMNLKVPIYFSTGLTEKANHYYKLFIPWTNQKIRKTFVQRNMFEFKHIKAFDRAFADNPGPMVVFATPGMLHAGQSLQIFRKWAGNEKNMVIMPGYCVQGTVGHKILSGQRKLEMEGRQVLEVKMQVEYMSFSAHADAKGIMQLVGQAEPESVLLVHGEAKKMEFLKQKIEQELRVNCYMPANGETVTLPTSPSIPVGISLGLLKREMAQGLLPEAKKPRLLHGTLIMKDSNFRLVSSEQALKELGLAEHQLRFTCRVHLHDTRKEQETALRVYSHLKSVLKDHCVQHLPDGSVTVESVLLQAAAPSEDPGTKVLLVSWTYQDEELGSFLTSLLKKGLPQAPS
UniProt Q9P2H3, whole entry, looked up: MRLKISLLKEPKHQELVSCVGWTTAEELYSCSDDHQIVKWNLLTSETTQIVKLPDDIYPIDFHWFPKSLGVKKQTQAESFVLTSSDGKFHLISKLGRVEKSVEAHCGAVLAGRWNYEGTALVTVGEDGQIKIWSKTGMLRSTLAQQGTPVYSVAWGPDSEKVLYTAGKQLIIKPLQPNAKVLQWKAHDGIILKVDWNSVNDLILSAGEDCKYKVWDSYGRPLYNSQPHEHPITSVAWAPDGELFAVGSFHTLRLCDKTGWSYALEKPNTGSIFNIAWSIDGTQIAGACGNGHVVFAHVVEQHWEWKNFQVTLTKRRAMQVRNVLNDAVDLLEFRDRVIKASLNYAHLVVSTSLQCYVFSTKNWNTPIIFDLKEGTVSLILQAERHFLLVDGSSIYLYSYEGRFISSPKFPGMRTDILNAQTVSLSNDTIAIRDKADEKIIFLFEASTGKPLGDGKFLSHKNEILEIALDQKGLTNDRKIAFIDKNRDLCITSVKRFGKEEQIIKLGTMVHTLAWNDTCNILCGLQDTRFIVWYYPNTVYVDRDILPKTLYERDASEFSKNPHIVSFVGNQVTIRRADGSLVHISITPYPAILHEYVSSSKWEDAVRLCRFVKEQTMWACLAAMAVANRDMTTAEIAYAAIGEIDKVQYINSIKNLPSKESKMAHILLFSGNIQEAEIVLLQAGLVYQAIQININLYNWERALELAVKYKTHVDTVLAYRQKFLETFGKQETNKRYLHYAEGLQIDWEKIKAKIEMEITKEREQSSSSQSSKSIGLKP
UniProt Q92598: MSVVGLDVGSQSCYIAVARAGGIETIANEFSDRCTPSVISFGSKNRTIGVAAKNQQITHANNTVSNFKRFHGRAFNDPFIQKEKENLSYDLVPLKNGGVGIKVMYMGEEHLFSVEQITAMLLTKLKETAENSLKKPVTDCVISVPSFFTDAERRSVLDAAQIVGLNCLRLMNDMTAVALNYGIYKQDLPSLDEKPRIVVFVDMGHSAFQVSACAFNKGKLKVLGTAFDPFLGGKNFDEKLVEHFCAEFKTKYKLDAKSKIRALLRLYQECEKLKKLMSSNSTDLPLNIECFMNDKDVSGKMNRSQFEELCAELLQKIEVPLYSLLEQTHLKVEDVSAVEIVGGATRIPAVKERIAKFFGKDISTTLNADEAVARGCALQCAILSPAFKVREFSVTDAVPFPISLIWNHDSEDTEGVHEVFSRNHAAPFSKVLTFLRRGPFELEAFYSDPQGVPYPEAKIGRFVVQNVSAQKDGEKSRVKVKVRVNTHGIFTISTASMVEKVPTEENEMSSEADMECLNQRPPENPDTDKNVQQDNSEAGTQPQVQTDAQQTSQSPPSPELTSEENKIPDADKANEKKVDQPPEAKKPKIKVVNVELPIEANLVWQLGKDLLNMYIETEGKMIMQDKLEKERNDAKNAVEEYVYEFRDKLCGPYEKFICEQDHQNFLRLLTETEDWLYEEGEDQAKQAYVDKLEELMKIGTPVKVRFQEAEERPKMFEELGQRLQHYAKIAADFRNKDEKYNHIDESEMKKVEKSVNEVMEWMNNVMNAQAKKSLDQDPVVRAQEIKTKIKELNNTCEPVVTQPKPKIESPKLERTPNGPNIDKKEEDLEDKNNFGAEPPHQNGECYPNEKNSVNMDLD
UniProt Q14642: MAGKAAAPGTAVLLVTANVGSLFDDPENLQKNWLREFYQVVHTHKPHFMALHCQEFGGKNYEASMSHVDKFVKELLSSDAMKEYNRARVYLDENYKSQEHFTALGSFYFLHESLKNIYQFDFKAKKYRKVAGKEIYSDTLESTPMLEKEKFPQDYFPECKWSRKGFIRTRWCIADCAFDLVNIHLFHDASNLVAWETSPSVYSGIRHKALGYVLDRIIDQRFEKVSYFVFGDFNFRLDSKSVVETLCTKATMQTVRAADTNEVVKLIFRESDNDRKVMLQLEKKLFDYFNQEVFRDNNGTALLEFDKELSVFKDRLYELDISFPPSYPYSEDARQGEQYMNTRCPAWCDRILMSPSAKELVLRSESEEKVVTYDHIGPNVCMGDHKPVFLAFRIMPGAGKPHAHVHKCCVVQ
UniProt O43464: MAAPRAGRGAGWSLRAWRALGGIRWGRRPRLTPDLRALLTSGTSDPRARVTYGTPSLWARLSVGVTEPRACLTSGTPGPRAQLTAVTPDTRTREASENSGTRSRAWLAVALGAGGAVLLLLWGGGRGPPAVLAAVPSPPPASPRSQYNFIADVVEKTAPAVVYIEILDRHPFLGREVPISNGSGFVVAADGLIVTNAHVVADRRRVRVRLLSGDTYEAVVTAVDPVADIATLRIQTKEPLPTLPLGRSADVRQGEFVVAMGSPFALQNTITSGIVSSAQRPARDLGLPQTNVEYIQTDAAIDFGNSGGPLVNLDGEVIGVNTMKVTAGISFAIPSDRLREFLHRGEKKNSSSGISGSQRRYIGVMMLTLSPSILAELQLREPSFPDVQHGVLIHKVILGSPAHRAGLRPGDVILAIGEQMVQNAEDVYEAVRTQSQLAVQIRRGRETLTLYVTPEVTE
UniProt Q14773: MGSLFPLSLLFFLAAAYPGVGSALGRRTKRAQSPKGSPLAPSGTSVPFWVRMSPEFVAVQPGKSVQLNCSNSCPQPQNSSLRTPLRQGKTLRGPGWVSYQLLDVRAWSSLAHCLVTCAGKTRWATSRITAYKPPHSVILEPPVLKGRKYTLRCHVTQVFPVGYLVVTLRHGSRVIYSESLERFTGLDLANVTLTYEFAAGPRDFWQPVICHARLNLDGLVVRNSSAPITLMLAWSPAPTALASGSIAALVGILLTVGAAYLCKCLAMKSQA
UniProt Q9BT40: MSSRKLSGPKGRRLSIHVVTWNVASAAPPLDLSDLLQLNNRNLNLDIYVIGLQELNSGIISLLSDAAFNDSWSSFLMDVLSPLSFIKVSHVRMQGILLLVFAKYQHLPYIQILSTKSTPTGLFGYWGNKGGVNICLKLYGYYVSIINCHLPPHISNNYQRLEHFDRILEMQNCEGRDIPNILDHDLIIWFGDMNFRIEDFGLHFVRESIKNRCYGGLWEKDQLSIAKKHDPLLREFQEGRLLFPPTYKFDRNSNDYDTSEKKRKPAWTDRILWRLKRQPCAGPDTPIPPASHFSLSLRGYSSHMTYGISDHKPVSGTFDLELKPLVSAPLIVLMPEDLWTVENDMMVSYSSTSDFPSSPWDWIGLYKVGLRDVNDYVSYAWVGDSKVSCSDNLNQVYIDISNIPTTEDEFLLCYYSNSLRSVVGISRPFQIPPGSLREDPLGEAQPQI
UniProt O75874, whole entry, looked up: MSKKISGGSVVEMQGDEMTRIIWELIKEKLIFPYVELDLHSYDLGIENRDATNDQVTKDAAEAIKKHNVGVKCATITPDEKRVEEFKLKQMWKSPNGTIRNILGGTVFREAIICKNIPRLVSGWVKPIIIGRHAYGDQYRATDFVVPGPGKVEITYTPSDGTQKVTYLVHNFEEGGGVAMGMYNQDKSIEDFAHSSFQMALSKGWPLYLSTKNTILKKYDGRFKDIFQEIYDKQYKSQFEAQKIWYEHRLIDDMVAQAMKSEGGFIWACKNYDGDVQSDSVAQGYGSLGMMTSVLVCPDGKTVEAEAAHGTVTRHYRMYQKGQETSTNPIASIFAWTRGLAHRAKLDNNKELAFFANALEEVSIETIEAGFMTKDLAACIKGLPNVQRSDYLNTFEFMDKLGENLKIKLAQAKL
UniProt Q05084: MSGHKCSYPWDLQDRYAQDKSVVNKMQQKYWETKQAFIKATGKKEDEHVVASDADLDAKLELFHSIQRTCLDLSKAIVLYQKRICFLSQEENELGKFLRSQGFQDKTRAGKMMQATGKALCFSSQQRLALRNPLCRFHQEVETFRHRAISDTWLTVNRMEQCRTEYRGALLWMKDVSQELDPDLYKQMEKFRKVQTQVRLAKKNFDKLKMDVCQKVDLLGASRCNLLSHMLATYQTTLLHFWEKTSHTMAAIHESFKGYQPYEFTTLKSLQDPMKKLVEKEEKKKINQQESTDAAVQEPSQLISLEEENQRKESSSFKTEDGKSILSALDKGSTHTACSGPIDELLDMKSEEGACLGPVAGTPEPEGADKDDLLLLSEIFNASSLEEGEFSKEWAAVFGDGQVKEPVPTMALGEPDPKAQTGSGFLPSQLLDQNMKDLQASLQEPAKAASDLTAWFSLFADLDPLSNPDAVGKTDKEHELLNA

Key:
Test in all cases: log2 fold change, soluble protein after heating vs DMSO (PISA); higher = thermal stabilisation; K562 lysate, 10 uM; active = over 0.2 and 3.5 SD of the protein, either way, in both replicates (recomputed)
[1] = compound: C1=CC=C(C=C1)[C@H](COC2=CC3=C(C=C2)NC(=O)N3)NC(=O)C4=CC=CN(C4=O)CC5=CC(=C(C=C5)F)F
How it was run: (§1)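 Soluble protein was defined as the supernatant remaining after 21,000xg for 90 min, following pooling of heated aliquots and adjustment to 0.5% NP-40 at 4°C. Before that, crude K562 extract at 1 mg/mL protein in PBS pH 7.4 with 1 mM MgCl2 was treated with 10 μM compound for 30 min and heated for 3 min across 48°C-58°C. Quantification used TMTpro 16plex LC-MS/MS with channel sums equalised, and values are log-two fold changes in thermal stability relative to solvent controls from duplicates.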

[2] = compound: CC1=C(SC2=C1C(=N[C@H](C3=NN=C(N32)C)CC(=O)N)C4=CC=C(C=C4)Cl)C
How it was run: as §1

[3] = compound: CC1=C2C(=CC=C1)N=C(N(C2=O)C3=CC=CC=C3C)CN4C=NC5=C(N=CN=C54)N
How it was run: as §1

[4] = compound: Cc1sc2c(c1C)C(c1ccc(Cl)cc1)=N[C@@H](CC(=O)OC(C)(C)C)c1nnc(C)n1-2
How it was run: as §1

[5] = compound: c1ccc([C@@H]2C[C@H]2NC2CCNCC2)cc1
How it was run: as §1

Measured: log2 fold change

HTT (UniProt P42858)
inactive: [1] 0.039 | [2] -0.088 | [3] 0.064 | [4] 0.066 | [5] -0.054

IFITM3 (UniProt Q01628)
inactive: [1] -0.011 | [2] -0.078 | [3] -0.118 | [4] -0.088 | [5] 0.026

IFNGR1 (UniProt P15260)
inactive: [1] 0.094 | [2] 0.083 | [3] 0.142 | [4] -0.299 | [5] -0.479

IKBKB (UniProt O14920)
inactive: [1] -0.006 | [2] -0.025 | [3] 0.01 | [4] 0.006 | [5] 0.068

IGSF3 (UniProt O75054)
inactive: [1] -0.009 | [2] -0.017 | [3] 0.046 | [4] 0.014 | [5] 0.017

IGBP1 (UniProt P78318)
inactive: [1] 0.023 | [2] -0.017 | [3] -0.008 | [4] 0.045 | [5] -0.038

IMMP2L (UniProt Q96T52)
inactive: [1] -0.084 | [2] -0.001 | [3] 0.001 | [4] -0.047 | [5] -0.001

INTS11 (UniProt Q5TA45)
inactive: [1] -0.019 | [2] -0.001 | [3] 0.04 | [4] 0.034 | [5] 0.042

Quoted from above (5 entries):
HTT (UniProt P42858)
inactive: [1] 0.039 | [2] -0.088 | [3] 0.064 | [4] 0.066 | [5] -0.054

IFITM3 (UniProt Q01628)
inactive: [1] -0.011 | [2] -0.078 | [3] -0.118 | [4] -0.088 | [5] 0.026

IFNGR1 (UniProt P15260)
inactive: [1] 0.094 | [2] 0.083 | [3] 0.142 | [4] -0.299 | [5] -0.479

IKBKB (UniProt O14920)
inactive: [1] -0.006 | [2] -0.025 | [3] 0.01 | [4] 0.006 | [5] 0.068

IGSF3 (UniProt O75054)
inactive: [1] -0.009 | [2] -0.017 | [3] 0.046 | [4] 0.014 | [5] 0.017

More entries:

IMMT (UniProt Q16891)
inactive: [1] -0.089 | [2] 0.016 | [3] 0.017 | [4] 0.022 | [5] 0.038

IFT80 isoform 3 (UniProt Q9P2H3)
inactive: [1] -0.056 | [2] 0.03 | [3] -0.126 | [4] -0.082 | [5] 0.042

INF2 (UniProt Q27J81)
inactive: [1] 0.016 | [2] 0.017 | [3] 0.015 | [4] -0.014 | [5] -0.06

HSPH1 (UniProt Q92598)
inactive: [1] 0.019 | [2] -0.028 | [3] 0.006 | [4] 0.008 | [5] -0.023

INPP5A (UniProt Q14642)
inactive: [1] -0.006 | [2] 0.043 | [3] 0 | [4] -0.228 | [5] -0.031

IGF2BP1 (UniProt Q9NZI8)
inactive: [1] -0.015 | [2] 0.026 | [3] 0.028 | [4] 0.042 | [5] 0.012

HTRA2 (UniProt O43464)
inactive: [1] 0.065 | [2] 0.024 | [3] 0.03 | [4] -0.018 | [5] -0.023

IGHG1 (UniProt P01857)
inactive: [1] 0.433 | [2] -0.179 | [3] 0.103 | [4] 0.055 | [5] -0.209

IDH3A isoform 2 (UniProt P50213)
inactive: [1] -0.017 | [2] 0.039 | [3] -0.029 | [4] -0.124 | [5] -0.119

ICAM4 isoform 3 (UniProt Q14773)
inactive: [1] 0.054 | [2] 0.027 | [3] -0.005 | [4] -0.376 | [5] -0.008

IDE, A0A3B3ISG5
inactive: [1] -0.009 | [2] -0.004 | [3] -0.006 | [4] -0.01 | [5] 0.03

INPP5K (UniProt Q9BT40)
inactive: [1] 0.034 | [2] -0.136 | [3] 0.14 | [4] 0.188 | [5] -0.092

IL18R1 (UniProt Q13478)
inactive: [2] -0.103 | [3] 0.119 | [4] -0.094 | [5] 0.052
active: [1] -0.612

IDH1 (UniProt O75874)
inactive: [1] -0.028 | [2] 0.01 | [3] 0.043 | [4] 0.025 | [5] 0.016

ICA1 (UniProt Q05084)
inactive: [1] -0.009 | [2] 0.03 | [3] -0.021 | [4] -0.011 | [5] -0.006

INTS13 (UniProt Q9NVM9)
inactive: [1] -0.012 | [2] -0.044 | [3] 0.016 | [4] 0 | [5] -0.012
